From PMC3250963 (EJNMMI Research, 2011)
Strings that start with PEPTIDE1 are HELM notation: dots part the residues, brackets hold end groups and non-standard residues.

Experiment: general procedure: Boc solid-phase peptide synthesis; MBHA resin (0.4 mmol/g); DIC
Details: conjugation step; for final HPLC purity: 214 nm; for final purity (method not given): CZE 214 nm

## PEPTIDE1{I.K.P.C.W.R.[Nle].R.Y.[am]}|PEPTIDE2{I.K.P.C.W.R.[Nle].R.Y.[am]}$PEPTIDE1,PEPTIDE2,4:R3-4:R3$$$V2.0
  final HPLC purity: 88%
  final purity (method not given): 84%

## PEPTIDE1{I.K.P.C.W.R.[Nle].R.Y.[am]}|PEPTIDE2{I.K.P.C.W.R.[Nle].R.Y.[am]}|PEPTIDE3{[DOTA]}|PEPTIDE4{[DOTA]}$PEPTIDE1,PEPTIDE2,4:R3-4:R3|PEPTIDE1,PEPTIDE3,2:R3-1:R2|PEPTIDE2,PEPTIDE4,2:R3-1:R2$$$V2.0
  final HPLC purity: 92%
  final purity (method not given): 96%

## PEPTIDE1{I.N.P.C.W.R.[Nle].R.Y.[am]}|PEPTIDE2{I.N.P.C.W.R.[Nle].R.Y.[am]}$PEPTIDE1,PEPTIDE2,4:R3-4:R3$$$V2.0
  final HPLC purity: 94%
  final purity (method not given): 90%

## PEPTIDE1{I.[Dpr].P.C.W.R.[Nle].R.Y.[am]}|PEPTIDE2{I.N.P.C.W.R.[Nle].R.Y.[am]}$PEPTIDE1,PEPTIDE2,4:R3-4:R3$$$V2.0
  final HPLC purity: 99%
  final purity (method not given): 99%

## PEPTIDE1{I.[Dpr].P.C.W.R.[Nle].R.Y.[am]}|PEPTIDE2{I.N.P.C.W.R.[Nle].R.Y.[am]}|PEPTIDE3{[DOTA]}$PEPTIDE1,PEPTIDE2,4:R3-4:R3|PEPTIDE1,PEPTIDE3,2:R3-1:R2$$$V2.0
  final HPLC purity: 98%
  final purity (method not given): 97%

## PEPTIDE1{I.[Dpr].P.C.W.R.[Nle].R.Y.[am]}|PEPTIDE2{I.[Dpr].P.C.W.R.[Nle].R.Y.[am]}$PEPTIDE1,PEPTIDE2,4:R3-4:R3$$$V2.0
  final HPLC purity: 99%
  final purity (method not given): 96%

## PEPTIDE1{I.[Dpr].P.C.W.R.[Nle].R.Y.[am]}|PEPTIDE2{I.[Dpr].P.C.W.R.[Nle].R.Y.[am]}|PEPTIDE3{[DOTA]}|PEPTIDE4{[DOTA]}$PEPTIDE1,PEPTIDE2,4:R3-4:R3|PEPTIDE1,PEPTIDE3,2:R3-1:R2|PEPTIDE2,PEPTIDE4,2:R3-1:R2$$$V2.0
  final HPLC purity: 94%
  final purity (method not given): 93%

## PEPTIDE1{[DOTA].I.N.P.C.W.R.[Nle].R.Y.[am]}|PEPTIDE2{[DOTA].I.N.P.C.W.R.[Nle].R.Y.[am]}$PEPTIDE1,PEPTIDE2,5:R3-5:R3$$$V2.0
  final HPLC purity: 95%
  final purity (method not given): 92%

## PEPTIDE1{[DOTA].I.N.P.C.Y.R.L.R.Y.[am]}|PEPTIDE2{[DOTA].I.N.P.C.Y.R.L.R.Y.[am]}$PEPTIDE1,PEPTIDE2,5:R3-5:R3$$$V2.0
  final HPLC purity: 97%
  final purity (method not given): 96%
